Source: publication doi:10.1101/2020.10.19.346502
These are yes or no findings as the source states them, for the method shown.

Tests used:
Assay in all cases: two-hybrid
[1] = target: T1, DnaA1 of C. trachomatis (C. trachomatis) (UniProt O84252)
T1 sequence: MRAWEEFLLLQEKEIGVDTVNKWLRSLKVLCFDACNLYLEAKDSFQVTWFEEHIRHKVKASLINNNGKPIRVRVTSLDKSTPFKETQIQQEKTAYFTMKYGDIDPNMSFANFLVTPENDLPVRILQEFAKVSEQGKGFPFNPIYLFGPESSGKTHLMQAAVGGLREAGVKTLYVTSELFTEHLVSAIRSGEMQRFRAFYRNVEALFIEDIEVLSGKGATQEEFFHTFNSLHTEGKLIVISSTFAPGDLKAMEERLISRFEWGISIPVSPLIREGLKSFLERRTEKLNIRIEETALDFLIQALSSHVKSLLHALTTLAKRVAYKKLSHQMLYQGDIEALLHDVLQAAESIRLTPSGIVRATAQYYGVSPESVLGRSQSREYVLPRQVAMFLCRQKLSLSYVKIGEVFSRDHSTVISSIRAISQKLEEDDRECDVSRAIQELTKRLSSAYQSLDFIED

[2] = target: T2, DnaA2 of C. trachomatis (C. trachomatis) (UniProt O84277)
T2 sequence: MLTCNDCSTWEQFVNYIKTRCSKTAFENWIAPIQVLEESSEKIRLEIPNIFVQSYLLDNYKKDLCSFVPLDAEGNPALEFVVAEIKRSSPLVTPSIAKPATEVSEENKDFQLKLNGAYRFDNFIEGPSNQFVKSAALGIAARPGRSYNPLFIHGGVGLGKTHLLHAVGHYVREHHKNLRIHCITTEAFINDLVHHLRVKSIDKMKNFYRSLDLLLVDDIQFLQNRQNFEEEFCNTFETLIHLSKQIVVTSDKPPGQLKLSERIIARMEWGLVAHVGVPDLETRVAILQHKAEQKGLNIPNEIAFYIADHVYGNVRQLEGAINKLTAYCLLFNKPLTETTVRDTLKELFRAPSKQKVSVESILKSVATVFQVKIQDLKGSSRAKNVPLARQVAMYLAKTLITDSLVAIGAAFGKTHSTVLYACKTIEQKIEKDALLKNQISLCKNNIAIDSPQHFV

[3] = target: T3, MreB of C. trachomatis (C. trachomatis) (UniProt O84715)
T3 sequence: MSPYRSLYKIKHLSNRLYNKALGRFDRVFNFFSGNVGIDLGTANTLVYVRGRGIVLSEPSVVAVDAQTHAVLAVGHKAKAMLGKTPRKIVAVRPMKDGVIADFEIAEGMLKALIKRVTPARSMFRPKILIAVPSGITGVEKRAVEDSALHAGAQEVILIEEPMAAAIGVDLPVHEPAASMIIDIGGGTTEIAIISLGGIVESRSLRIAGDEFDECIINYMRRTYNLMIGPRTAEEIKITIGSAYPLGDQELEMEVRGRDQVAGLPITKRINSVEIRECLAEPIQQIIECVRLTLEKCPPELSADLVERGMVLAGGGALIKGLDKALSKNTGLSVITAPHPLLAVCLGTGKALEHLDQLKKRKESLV

Measured: binding

BacACT, chlamydial bactofilin encoded by ct276 / ctl_0528
no binding: all assays above
